Results on 1 molecule are retold here after publication PMC4513986.

No constants are given. Whether binding was seen depends on the method and setting. In cells and extracts the contact can be indirect.

In the assay the target is T1, scavenger receptor class B type I (SR-BI) (mouse (endogenous in peritoneal macrophages)) (UniProt Q61009).
T1 sequence: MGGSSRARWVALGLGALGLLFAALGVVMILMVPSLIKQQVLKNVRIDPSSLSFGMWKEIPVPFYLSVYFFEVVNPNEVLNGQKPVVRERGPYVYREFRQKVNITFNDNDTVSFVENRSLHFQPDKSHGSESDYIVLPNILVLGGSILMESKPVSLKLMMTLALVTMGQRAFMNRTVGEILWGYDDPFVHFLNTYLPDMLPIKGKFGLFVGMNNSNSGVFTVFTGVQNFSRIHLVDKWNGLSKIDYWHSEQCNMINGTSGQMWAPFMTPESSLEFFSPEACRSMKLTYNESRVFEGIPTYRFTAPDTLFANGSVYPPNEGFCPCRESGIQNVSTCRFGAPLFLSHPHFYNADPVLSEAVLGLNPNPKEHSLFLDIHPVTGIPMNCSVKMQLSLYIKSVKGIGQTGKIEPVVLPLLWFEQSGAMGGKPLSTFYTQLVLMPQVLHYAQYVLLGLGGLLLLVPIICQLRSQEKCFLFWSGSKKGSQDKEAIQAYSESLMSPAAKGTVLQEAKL
Nature of the assay: co-IP; WT mouse peritoneal macrophage lysates incubated with antibody (anti-SR-BI, anti-Src or anti-LRP1), then protein A/G magnetic beads; precipitated partner detected by Western blotting. A general note: In western blotting, separated proteins are transferred to a membrane and probed.

B1: engulfment adaptor PTB domain (GULP) (protein, UniProt Q8K2A1 1-304)
chain: MNRAFSRKKDKTWMHTPEALSKHYIPYNAKFLGSTEVEQPKGTEVVRDAVRKLKFARHIKKSEGQKIPKVELQISIYGVKILEPKTKEVQHNCQLHRISFCADDKTDKRIFTFICKDSESNKHLCFVFDSEKCAEEITLTIGQAFDLAYRKFLESGGKDVETRKQIAGMQKRIQDLETENMELKNKVQDLESRLRTTQVSTSPAHGVTVMSPSTDIFDMIPFSPISHQSPTSARNGTQLPPIPSRSAETKRDLFGAEPFDPFNCGSGDFPPDIQSKLDEMQEGFKMGLTLEGTVFCLDPLDSRC
B1: the binding result is “no binding”.
